No constants are given. Whether binding was seen depends on the method and setting. For some of these results: A result given as binding can be weak or reduced; the word gives no strength.
Key:
hemoglobin = experiment: solid-phase ELISA
transferrin = experiment: solid-phase ELISA
thyroglobulin = experiment: solid-phase ELISA
myosin = experiment: solid-phase ELISA
vimentin = experiment: solid-phase ELISA
[1] = molecular target: myelin basic protein (MBP); experiment: solid-phase ELISA
albumin = experiment: solid-phase ELISA
tubulin = experiment: solid-phase ELISA
[2] = molecular target: myelin basic protein (MBP); experiment: ELISA, MBP coated on plate

binding (hemoglobin)	binding (transferrin)	binding (thyroglobulin)	binding (myosin)	binding (vimentin)	binding [1]	binding (albumin)	binding (tubulin)	binding [2]	Binder
no binding	no binding	no binding	no binding	no binding	no binding	no binding	no binding	–	mAb O1 (antibody, V domains shown, Mouse IgM kappa; Entries may include the leader peptide; The hybridoma also makes the MOPC21 kappa chain; also called 01) VH: QVQLQQSGPELVKPGALVKISCKASGYTFTSYDINWVKQRPGQGLEWIGWIYPGDGSTKYNEKFKGKATLTADKSSSTAYMQLSSLTSENSAVYFCARGARFYWYFDVWGAGTTVTVSS VL: DVQITQSPSYLAASPGETITINCRASKSISKYLAWYQEKPGKTNKLLIYSGSTLQSGIPSRFSGSGSGTDFTLTISSLEPEDFAMYYCQQHNEYPYTFGGGTKLEIKR
–	no binding	binds	no binding	binds	no binding	no binding	binds	no binding	monoclonal antibody SCH94.03 (antibody, V domains shown) VH: QVQLQQPGTELVKPGASVKLSCKASGYTFTSYWMHWVKQRPGQGLEWIGNINPSNGGTNYNEKFKSKATLTVDKSSSTAYMQLSSLTSEDSAVYYCARRAPYYGSRNFDYWGQGTTLTVSS VL: DIQMTQTTSSLSASLGDRVTISCRASQDISNYLNWYQQKPDGTVKLLIYYTSRLHSGVPSRFSGSGSGTDYSLTISNLEQEDIATYFCQQGNTLPWTFGGGTKLEIKR

Source: patent publication US20180086821A1 (MAYO FOUNDATION FOR MEDICAL EDUCATION AND RESEARCH, published 2018)
